Results as given in PubChem BioAssay AID743255 (National Center for Advancing Translational Sciences (NCATS), 2014).
Among all 390,000 compounds or so, about 910 (0.23%) were called active. Inconclusive results, whose numbers are uncertain, are shown with a selection of clear calls. Calls follow the shape of the dose curve; as a rule, active = well fitted inhibition curve with a large enough effect; inconclusive = small, poorly fitted or top-dose-only effect; inactive = no such curve, though single readings can be large or run the other way. Potencies beside an inconclusive call are fits to weak or partial responses and may not hold up.

Sequences of proteins named here, by UniProt entry; tags and fusion partners are left off. A change or cut given only in a name is not applied to a line headed by its entry.
UniProt O94782: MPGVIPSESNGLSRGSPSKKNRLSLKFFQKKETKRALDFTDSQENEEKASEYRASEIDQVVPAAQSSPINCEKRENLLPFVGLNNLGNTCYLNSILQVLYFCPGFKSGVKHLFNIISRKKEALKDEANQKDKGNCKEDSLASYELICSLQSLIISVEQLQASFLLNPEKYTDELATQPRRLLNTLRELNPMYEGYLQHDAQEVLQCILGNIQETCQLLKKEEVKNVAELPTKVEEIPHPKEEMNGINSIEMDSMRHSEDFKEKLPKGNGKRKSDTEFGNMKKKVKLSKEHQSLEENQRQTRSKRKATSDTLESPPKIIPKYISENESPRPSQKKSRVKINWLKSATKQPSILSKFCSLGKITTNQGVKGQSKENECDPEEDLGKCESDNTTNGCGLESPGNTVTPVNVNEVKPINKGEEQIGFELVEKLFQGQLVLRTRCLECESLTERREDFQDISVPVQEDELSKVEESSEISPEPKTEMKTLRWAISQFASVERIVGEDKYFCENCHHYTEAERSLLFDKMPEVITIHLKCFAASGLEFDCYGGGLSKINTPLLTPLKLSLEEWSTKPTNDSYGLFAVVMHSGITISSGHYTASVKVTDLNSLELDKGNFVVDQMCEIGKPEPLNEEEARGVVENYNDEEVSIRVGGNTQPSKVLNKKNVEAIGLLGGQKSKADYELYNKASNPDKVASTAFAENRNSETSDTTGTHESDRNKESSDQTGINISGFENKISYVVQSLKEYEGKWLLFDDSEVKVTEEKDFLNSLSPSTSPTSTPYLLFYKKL

These molecules were tested against Ubiquitin carboxyl-terminal hydrolase 1 (Homo sapiens) (UniProt O94782) (assay: Inhibitors of USP1/UAF1: Primary Screen). Conditions: recombinant USP1/UAF1, Ub-Rhodamine cleavage fluorescence; activity change, negative = inhibition: at 57.1 µM (top of the series).
Excerpt: Deubiquitinating enzymes (DUBs) are a class of enzymes that can cleave isopeptide bond formed between the C-terminal carboxylate of ubiquitin and a lysine side-chain amino group on the target protein. Among them, ubiquitin specific proteases (USPs) constitute the largest DUB family. Human USPs are emerging as promising targets for pharmacological intervention because of their connection to a number of human diseases, including prostate, colon and breast cancer (1, 2), pediatric acute lymphoblastic leukemia (3), and familial cylindromatosis (4). The advantage of inhibiting USPs lies in the potential specificity of therapeutic intervention that can lead to better efficacy and reduce nonspecific side effects. In a collaboration between the University of Delaware and the NIH Chemical Genomics Center, a high-throughput screen assay was developed to screen for USP1/UAF1 inhibitors. This miniaturized assay has a fluorescent read-out and is used to screen the NIH Molecular Libraries Small Molecule Repository (MLSMR) in order to identify a small molecule that inhibits USP1. NIH Chemical Genomics Center [NCGC] NIH Molecular Libraries Probe Centers Network [MLPCN] MLPCN Grant: DA030552 Assay Submitter (PI): Zhihao Zhuang, University of Delaware 1. Priolo, C., et al. (2006) The isopeptidase USP2a protects human prostate cancer from apoptosis. Cancer Res 66, 8625-8632 2. Popov, N., et al. (2007) The ubiquitin-specific protease USP28 is required for MYC stability. Nat Cell Biol 9, 765-774 3. De Pitta, C., et al. (2005) A leukemia-enriched cDNA microarray platform identifies new transcripts with relevance to the biology of pediatric acute lymphoblastic leukemia. Haematologica 90, 890-898 4. Kovalenko, A., et al. (2003) The tumour suppressor CYLD negatively regulates NF-kappaB signalling by deubiquitination. Nature 424, 801-805
3 microliters of reagents (buffer in columns 3 and 4 as negative control and 1nM USP1/UAF1 complex in columns 1, 2, and 5-48) are dispensed into Greiner black solid bottom 1536-well assay plates. Compounds are then transferred via Kalypsys pin tool equipped with 1536-pin array (10nl slotted pins, V&P Scientific, San Diego, CA). Following an incubation step of 15 min at room temperature, 1ul of Ub-Rho substrate (150nM final concentration) is added to initiate the reaction. The plates are immediately centrifuged at 1000 rpm for 15 seconds, and subsequently transferred to a ViewLux high-throughput CCD imager (PerkinElmer) wherein kinetic measurements of fluorescence are acquired using 480 nm excitation/540 nm emission filter set (6 reads every 60 seconds, see Table 1). All reagents are diluted in an assay buffer consisting of 50mM HEPES (pH 7.8), 0.5mM EDTA, 0.1 mg/ml BSA, 1mM TCEP, and 0.01% Tween-20.
% is scaled to controls: 0 for no effect and ±100 for the full control effect; potency is read from the fitted curve at half-maximal effect.
Also: nearly all actives have a fitted effect of over 60% in size.

SMILES | Potency | activity change, negative = inhibition
N#CCn1cnc2sc(-c3ccccc3)cc2c1=O | inactive | 
COc1ccc(CNC(=O)C(=O)NCC(c2cccs2)S(=O)(=O)c2cccs2)cc1 (centres undefined) | inconclusive: 44.7 µM [inhibitor, partial curve] | 
Cc1ccc(-c2nc(N)sc2C)cc1 | inactive | 
COc1ccc(S(=O)(=O)Nc2ccc(N3CCOCC3)cc2)cc1[N+](=O)[O-] | inconclusive: 0.251 µM [inhibitor, full curve, poor fit] | 
O=C(Cc1ccc(-c2ccccc2)cc1)NC(c1ccccc1)c1ccccc1 | inconclusive: 44.7 µM [inhibitor, partial curve, poor fit] | 
Cc1ccc(S(=O)(=O)C(CNS(=O)(=O)c2ccc(F)c(C)c2)c2cccs2)cc1 (centres undefined) | inconclusive: 6.31 µM [inhibitor, partial curve] | 
CCOCCCNC(=S)N1CCN(c2nc(-c3ccccc3)cs2)CC1 | inconclusive: 28.2 µM [inhibitor, partial curve] | 
Oc1ccccc1/C=N/N1CCN(c2ccccn2)CC1 | inactive | 
Cc1ccn2c(Nc3ccc4c(c3)OCCO4)c(-c3ccc(N(C)C)cc3)nc2c1 | inactive | 
CNc1sc(C(=O)c2cccs2)c(N)c1-c1nc2ccccc2s1 | inactive | 
O=C(Cn1c(=O)n(-c2ccccc2Cl)c(=O)c2sc3ccccc3c21)NC1CCCC1 | inconclusive: 44.7 µM [inhibitor, partial curve, poor fit] | 
COc1ccc(OCCN2C(=O)c3cccc(N)c3C2=O)cc1 |  | inconclusive: -5.73% [inhibitor]
C#CCN(C(=O)c1cc(COc2cccc(C(F)(F)F)c2)on1)C1CCCCC1 | inconclusive: 44.7 µM [inhibitor, partial curve] | 
Cc1ccc(CNC(=O)CSCc2nc(-c3cccc(C)c3)oc2C)cc1 | inconclusive: 31.6 µM [inhibitor, partial curve, poor fit] | 
Cn1c(/C(C#N)=C/c2ccc(C(F)(F)F)cc2)nc2ccccc21 | inactive | 
CCN(CC)C(=O)CSc1ncnc2c(-c3cccs3)nsc12 | inactive | 
C[C@@H]1CC[C@]2(C(=O)O)CC[C@]3(C)C(=CCC4[C@]56CC[C@@](O)(OC5)C(C)(C)C6CC[C@]43C)C2[C@H]1C (some centres undefined) | inactive | 

Taken from above.
Entry of Oc1ccccc1/C=N/N1CCN(c2ccccn2)CC1 under Potency: inactive
Entry of Cc1ccc(-c2nc(N)sc2C)cc1 under Potency: inactive

Remaining list, next part:

SMILES | Potency | activity change, negative = inhibition
O=C(Cn1cc2c(n1)CCCCC2)N1CCc2ccccc2C1 | inconclusive: 44.7 µM [inhibitor, partial curve, poor fit] | 
Cc1cc(C)n(-c2ccc(C(F)(F)F)cc2[N+](=O)[O-])n1 | inconclusive: 39.8 µM [inhibitor, partial curve, poor fit] | 
CCOC(=O)C1CCN(C(=O)CSc2n[nH]c(-c3ccc(OC)cc3)n2)CC1 | inconclusive: 0.631 µM [inhibitor, full curve, poor fit] | 
CC/C(=N/Nc1ccc(Cl)cc1)c1cnnc(SC)n1 | inconclusive: 39.8 µM [inhibitor, partial curve] | 
CCOC(=O)C1=C(C)OC(N)=C(C#N)C1c1cc(C)sc1C (centres undefined) | inconclusive: 70.8 µM [inhibitor, partial curve, poor fit] | 
COc1ccccc1NC(=O)c1ccc(NC(=O)C2COc3ccccc3O2)cc1 (centres undefined) | inconclusive: 31.6 µM [inhibitor, single point] | 
CC(C)CCC(=O)Nc1cc(S(=O)(=O)N2CCOCC2)ccc1N1CCCC1 | inconclusive: 316 µM [inhibitor, partial curve, poor fit] | 
Cc1ccc(NC(=O)C(C)Sc2nc3c(c(=O)[nH]2)CCCC3)cc1Cl (centres undefined) | inconclusive: 8.91 µM [inhibitor, partial curve, poor fit] | 
O=C(NCc1ccccc1)C1=C[C@H](c2csc3ccccc23)C[C@H](OCCCCO)O1 | inconclusive: 63.1 µM [inhibitor, partial curve, poor fit] | 
O=C(CSc1ccc(-c2nc3ccccc3[nH]2)cn1)N1CCN(C(=O)c2ccco2)CC1 | inactive | 
COc1cccc(N=c2oc3ccc(OC)cc3cc2-c2nc3ccccc3[nH]2)c1 | inconclusive: 28.2 µM [inhibitor, single point] | 
CCOC(=O)NC1(NCC(C)C)Oc2ccccc2O1 | inactive | 
Cc1ccc2c(c1)N(C(=O)CCC(=O)NCc1cccs1)CC(C)O2 (centres undefined) | inactive | 
COc1ccc(/C=C2\C(=O)NC(=S)N2C(=O)c2ccc(C)cc2)cc1 | inconclusive: 28.2 µM [inhibitor, single point] | 
O=c1c2c([N+](=O)[O-])cc([N+](=O)[O-])cc2nc2ccccn12 | inactive | 
Cc1ccc(N2C(=O)CS(=O)(=O)C23C(=O)N(Cc2ccc(Cl)cc2)c2ccccc23)cc1C (centres undefined) | inconclusive: 6.31 µM [inhibitor, full curve] | 
O=C(O)c1cnccn1 | inconclusive: 35.5 µM [inhibitor, single point] | 
